No constants are given. Whether binding was seen depends on the method and setting. In cells and extracts the contact can be indirect. Some entries that bind do so weakly or less than the wild type.

By UniProt entry, the sequences of proteins in these tests, tags left out. Where a name states a change or a piece, a line headed by the entry shows the natural chain unless it says otherwise. Chains listed by the source or under a name are the forms on record and can include a tag or linker.
VCL head (amino acids 1-258) M209L, FLAG-tagged (P18206-2, form named): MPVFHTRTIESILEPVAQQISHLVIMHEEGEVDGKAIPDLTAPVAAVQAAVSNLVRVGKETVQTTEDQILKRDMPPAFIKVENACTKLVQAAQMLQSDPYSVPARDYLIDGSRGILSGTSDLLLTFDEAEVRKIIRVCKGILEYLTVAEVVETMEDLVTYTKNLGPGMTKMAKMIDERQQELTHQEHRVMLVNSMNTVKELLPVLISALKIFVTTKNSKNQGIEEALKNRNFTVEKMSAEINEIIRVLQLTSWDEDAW
VCL tail (amino acids 879-1,066), c-MYC-tagged (P18206-2, form named): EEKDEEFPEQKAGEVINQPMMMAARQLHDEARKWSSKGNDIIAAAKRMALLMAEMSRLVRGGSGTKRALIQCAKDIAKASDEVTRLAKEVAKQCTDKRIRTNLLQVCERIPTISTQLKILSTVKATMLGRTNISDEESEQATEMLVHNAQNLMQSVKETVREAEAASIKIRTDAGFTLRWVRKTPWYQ

This passage reports binding results from publication PMC12867144.

In the assay the target is VCL head (amino acids 1-258) M209L, FLAG-tagged (human) (UniProt P18206). Nature of the assay: co-IP; FLAG-tagged VCL head (WT or M209L) and c-MYC-tagged VCL tail coexpressed in HeLa cells; lysates incubated with anti-GFP or anti-FLAG M2 magnetic beads overnight at 4°C, washed four times with lysis buffer, Western blot. For orientation: Immunoblotting shows a protein as a band on a membrane.

For “VCL tail (amino acids 879-1,066), c-MYC-tagged (from UniProt P18206-2 879-1066) (domain or fragment)”, the binding entry is on record as “binds”.
